According to the supplement of paper PMC10849652:
The list shows a part of the results.

Amino acid sequences for entries named in this document (tags omitted). A change or cut given only in a name is not applied to a line headed by its entry.
UniProt Q9NQT4, whole entry, looked up: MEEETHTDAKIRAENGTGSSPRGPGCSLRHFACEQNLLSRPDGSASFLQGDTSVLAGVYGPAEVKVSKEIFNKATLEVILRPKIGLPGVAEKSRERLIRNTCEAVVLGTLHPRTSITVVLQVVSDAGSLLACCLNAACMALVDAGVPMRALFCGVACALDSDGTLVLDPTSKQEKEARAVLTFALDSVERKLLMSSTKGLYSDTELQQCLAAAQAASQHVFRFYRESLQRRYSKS
UniProt Q9UI08, whole entry, looked up: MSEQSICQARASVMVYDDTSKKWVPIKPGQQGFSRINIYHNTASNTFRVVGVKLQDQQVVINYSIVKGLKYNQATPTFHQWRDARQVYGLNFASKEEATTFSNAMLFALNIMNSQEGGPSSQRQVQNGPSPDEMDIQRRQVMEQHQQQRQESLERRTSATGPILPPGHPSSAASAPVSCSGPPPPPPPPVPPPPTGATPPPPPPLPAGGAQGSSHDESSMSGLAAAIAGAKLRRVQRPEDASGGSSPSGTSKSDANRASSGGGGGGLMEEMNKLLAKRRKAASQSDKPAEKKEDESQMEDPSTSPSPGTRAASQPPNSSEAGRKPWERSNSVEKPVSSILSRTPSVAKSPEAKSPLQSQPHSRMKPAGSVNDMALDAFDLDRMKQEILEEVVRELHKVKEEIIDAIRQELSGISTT
UniProt Q9BSJ8: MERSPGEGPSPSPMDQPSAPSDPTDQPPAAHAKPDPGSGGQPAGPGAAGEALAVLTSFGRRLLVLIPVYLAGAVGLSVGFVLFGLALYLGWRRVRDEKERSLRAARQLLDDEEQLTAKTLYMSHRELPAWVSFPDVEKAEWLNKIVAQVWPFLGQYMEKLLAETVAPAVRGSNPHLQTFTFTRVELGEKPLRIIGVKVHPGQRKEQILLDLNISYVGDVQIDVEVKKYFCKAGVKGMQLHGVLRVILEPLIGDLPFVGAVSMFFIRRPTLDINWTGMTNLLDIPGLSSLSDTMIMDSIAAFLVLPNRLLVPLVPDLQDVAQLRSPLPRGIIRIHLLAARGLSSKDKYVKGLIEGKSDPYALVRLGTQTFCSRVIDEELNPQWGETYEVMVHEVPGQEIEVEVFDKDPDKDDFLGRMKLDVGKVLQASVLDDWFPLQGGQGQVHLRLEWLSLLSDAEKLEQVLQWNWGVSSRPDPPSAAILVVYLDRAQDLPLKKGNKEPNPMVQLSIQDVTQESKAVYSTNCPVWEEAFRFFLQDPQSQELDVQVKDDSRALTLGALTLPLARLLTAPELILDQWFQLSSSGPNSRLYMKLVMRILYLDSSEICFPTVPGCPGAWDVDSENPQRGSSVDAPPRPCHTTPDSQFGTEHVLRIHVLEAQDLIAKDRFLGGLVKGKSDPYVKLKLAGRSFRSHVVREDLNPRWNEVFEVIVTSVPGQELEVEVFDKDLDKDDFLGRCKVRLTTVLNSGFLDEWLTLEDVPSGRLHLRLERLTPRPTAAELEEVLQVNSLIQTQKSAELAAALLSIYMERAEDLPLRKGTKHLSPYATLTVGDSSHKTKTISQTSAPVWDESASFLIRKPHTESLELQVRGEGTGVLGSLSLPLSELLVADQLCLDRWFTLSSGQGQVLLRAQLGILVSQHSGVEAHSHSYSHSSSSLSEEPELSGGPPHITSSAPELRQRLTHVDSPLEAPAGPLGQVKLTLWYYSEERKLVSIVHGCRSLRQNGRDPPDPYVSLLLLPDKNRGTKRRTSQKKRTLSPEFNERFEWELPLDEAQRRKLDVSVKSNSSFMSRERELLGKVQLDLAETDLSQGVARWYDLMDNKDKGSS
UniProt Q96A65: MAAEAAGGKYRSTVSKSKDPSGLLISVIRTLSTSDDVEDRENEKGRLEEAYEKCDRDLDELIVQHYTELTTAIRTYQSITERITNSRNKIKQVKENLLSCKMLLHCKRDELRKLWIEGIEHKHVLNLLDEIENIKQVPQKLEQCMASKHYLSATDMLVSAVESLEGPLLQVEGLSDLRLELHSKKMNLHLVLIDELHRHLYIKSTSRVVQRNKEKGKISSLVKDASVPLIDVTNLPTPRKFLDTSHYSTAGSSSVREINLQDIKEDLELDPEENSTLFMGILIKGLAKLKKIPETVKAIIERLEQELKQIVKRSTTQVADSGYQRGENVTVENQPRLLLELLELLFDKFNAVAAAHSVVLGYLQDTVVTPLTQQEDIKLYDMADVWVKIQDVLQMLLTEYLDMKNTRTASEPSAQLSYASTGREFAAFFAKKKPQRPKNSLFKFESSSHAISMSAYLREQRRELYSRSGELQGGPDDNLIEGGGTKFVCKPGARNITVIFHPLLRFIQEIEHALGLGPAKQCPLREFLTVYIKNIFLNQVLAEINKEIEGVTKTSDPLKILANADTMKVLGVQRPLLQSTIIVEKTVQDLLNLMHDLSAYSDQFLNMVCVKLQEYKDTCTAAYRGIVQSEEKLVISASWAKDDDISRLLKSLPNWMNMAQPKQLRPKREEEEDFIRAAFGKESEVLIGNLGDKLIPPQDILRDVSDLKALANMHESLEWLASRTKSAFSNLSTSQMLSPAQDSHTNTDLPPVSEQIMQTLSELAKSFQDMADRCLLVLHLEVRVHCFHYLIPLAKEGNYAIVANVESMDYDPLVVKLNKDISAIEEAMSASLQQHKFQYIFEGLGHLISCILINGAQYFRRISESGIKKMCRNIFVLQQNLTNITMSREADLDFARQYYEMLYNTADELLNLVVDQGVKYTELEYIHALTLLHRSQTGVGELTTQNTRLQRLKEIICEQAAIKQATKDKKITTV
UniProt Q96KR6: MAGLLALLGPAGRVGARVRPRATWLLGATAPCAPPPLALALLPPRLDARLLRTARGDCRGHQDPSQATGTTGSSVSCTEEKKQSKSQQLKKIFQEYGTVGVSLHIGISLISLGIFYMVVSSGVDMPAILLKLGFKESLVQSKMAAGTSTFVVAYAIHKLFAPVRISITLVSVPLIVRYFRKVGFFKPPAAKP
UniProt Q96HE7: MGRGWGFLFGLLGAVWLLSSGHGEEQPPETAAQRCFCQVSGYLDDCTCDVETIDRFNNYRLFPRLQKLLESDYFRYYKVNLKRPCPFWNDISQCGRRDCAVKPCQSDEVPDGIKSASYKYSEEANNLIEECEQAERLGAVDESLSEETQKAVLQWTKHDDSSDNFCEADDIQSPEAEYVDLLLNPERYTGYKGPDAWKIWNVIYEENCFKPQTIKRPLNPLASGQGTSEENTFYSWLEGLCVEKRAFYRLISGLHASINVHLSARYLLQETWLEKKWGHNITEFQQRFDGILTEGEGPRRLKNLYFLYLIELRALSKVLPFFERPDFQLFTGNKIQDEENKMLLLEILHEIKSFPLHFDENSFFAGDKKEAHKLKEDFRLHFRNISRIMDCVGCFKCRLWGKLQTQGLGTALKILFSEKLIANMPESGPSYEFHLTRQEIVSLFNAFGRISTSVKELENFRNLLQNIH
UniProt Q96GK7: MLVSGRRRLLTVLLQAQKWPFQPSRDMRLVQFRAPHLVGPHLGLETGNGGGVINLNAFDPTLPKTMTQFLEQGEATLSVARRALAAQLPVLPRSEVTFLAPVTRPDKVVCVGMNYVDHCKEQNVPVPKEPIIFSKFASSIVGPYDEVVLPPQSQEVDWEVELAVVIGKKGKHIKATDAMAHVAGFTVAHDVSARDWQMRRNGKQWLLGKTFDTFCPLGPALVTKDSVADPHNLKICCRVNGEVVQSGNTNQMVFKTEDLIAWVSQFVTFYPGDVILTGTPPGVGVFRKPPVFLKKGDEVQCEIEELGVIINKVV
UniProt Q06265, whole entry, looked up: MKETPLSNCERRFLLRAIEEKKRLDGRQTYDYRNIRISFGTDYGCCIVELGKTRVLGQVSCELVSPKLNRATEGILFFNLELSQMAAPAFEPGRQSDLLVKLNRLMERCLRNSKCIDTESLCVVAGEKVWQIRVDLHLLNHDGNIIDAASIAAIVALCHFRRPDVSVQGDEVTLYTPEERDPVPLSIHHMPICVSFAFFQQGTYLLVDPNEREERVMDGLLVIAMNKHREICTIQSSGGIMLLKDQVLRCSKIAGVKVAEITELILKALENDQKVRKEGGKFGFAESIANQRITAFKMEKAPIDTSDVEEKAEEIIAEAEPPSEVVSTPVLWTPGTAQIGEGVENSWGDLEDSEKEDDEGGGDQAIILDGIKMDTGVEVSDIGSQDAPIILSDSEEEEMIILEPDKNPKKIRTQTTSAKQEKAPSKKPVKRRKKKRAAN
UniProt Q0VG06: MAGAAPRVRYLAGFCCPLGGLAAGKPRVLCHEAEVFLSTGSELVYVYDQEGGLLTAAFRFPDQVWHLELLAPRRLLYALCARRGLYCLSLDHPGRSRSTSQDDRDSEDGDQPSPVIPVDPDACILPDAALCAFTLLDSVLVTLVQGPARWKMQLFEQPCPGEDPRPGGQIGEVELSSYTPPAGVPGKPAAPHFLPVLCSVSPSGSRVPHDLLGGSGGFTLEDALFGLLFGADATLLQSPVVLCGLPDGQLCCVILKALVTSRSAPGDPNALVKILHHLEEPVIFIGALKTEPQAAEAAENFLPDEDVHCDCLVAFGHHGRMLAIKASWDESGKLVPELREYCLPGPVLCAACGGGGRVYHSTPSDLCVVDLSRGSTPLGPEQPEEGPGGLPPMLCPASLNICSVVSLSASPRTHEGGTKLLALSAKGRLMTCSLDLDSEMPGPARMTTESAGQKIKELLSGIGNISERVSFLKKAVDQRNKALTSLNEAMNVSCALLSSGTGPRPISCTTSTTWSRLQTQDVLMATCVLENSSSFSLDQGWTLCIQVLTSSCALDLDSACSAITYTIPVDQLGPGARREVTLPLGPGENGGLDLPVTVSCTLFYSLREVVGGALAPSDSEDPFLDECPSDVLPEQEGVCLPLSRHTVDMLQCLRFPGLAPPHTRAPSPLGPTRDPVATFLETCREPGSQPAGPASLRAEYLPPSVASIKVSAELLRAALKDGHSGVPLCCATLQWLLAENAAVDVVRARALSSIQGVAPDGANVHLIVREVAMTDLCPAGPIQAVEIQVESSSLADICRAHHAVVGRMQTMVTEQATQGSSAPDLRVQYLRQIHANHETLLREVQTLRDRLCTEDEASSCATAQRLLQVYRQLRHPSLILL
UniProt Q9NRY5: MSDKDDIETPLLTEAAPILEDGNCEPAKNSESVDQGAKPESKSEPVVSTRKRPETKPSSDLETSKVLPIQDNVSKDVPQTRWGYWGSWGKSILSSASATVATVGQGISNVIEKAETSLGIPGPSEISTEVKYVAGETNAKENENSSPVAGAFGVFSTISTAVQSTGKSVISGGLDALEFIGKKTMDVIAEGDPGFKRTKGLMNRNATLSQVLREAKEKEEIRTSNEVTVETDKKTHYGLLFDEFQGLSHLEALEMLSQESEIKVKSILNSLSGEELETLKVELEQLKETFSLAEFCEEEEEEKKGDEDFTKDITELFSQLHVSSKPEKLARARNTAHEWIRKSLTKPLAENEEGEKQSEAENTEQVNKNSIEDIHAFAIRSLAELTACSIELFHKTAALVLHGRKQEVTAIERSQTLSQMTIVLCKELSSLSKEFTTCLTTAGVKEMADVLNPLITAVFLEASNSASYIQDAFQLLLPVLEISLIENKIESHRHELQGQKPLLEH
UniProt Q8IXS8: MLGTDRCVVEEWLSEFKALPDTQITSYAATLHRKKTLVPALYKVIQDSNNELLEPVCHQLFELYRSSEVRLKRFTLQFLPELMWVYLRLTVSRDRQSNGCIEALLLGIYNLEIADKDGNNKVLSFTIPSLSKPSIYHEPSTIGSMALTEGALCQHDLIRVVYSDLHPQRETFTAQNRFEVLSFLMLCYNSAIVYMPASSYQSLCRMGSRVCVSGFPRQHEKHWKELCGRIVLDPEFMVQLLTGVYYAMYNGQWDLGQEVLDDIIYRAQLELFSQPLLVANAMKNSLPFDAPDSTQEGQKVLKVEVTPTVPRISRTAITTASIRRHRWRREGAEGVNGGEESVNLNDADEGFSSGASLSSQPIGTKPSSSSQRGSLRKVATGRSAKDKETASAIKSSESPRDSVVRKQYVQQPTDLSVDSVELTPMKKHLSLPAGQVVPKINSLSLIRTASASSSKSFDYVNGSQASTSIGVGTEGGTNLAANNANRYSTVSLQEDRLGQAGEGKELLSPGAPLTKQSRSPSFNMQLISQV
UniProt Q8WUF8: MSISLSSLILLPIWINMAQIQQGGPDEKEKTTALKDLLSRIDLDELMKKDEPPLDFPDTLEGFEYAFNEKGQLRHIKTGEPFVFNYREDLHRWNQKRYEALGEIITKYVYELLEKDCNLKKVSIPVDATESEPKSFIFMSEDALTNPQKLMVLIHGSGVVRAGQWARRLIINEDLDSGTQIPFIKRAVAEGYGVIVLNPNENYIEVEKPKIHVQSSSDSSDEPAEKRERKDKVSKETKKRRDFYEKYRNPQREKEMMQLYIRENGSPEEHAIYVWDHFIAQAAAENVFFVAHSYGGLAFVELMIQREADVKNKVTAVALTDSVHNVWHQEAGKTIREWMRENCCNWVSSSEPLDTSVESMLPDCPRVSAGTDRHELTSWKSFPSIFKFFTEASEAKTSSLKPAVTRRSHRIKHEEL

Legend:
Assay in all cases: log2 fold change, soluble protein after heating vs DMSO (PISA); higher = thermal stabilisation; K562 lysate, 10 uM; active = over 0.2 and 3.5 SD of the protein, either way, in both replicates (recomputed)
[1] = compound: C#Cc1cccc(Nc2ncnc3cc(OCCOC)c(OCCOC)cc23)c1 [erlotinib]
Method in brief: (§1)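 The values are log-two fold changes in thermal stability compared with solvent controls and come from duplicates. They were obtained by TMTpro 16plex LC-MS/MS, with channel sums equalised, on the supernatant after 21,000xg for 90 min. That supernatant came from crude K562 extract at 1 mg/mL protein treated with 10 μM compound for 30 min, heated for 3 min across 48°C-58°C, pooled and brought to 0.5% NP-40 at 4°C.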

[2] = compound: C/C(=N\NC(=O)C1=CC(=CC=C1)S(=O)(=O)N2CCOCC2)/C3=C(C=CC(=C3)Cl)O
Method in brief: as §1

[3] = compound: C1=CC(=CC=C1C2=NC3=C(N2)C=C(C=C3)C(=O)N)OC4=CC=C(C=C4)Cl
Method in brief: as §1

[4] = compound: C1=CC2=C(C=CC(=C2)/C=C\3/C(=O)NC(=NCC4=CC=CS4)S3)N=C1
Method in brief: as §1

[5] = compound: C1=CC2=NC=CN=C2C=C1/C=C/3\C(=O)NC(=O)S3
Method in brief: as §1

[6] = compound: C1=CC=C(C=C1)C2=NC(=C(N2)C3=CC=NC=C3)C4=CC(=C(C=C4)Cl)O
Method in brief: as §1

[7] = compound: C1=CC=C2C(=C1)C3=NNC4=CC=CC(=C43)C2=O
Method in brief: as §1

[8] = compound: C1CCN(C1)C(=O)NC2=CC=CC(=C2)NC3=NC=C(C(=N3)NCCC4=CN=CN4)Br
Method in brief: as §1

[9] = compound: C1CN(CCC1(CC2=CC=C(C=C2)Cl)N)C3=NC=NC4=C3C=CN4
Method in brief: as §1

[10] = compound: C1COCCN1CCN2C3=CC=CC=C3N=C2NC(=O)C4=CC(=CC=C4)[N+](=O)[O-] [IRAK-1-4 Inhibitor I]
Method in brief: as §1

[11] = compound: C=CC(=O)N1CCC[C@@H](n2nc(-c3ccc(Oc4ccccc4)cc3)c3c(N)ncnc32)C1 [ibrutinib]
Method in brief: as §1

[12] = compound: CC(=O)c1cnc2ccc(-c3cc(Cl)c(O)c(Cl)c3)nc2c1N[C@H]1CC[C@H](CN(C)C)CC1
Method in brief: as §1

[13] = compound: CC(C)(C)Cn1c(N)nc2ccc(-c3[nH]c(C(C)(C)C)nc3-c3ccc(F)cc3)nc21 [ralimetinib]
Method in brief: as §1

[14] = compound: CC(C)(O)CC(=O)NCCn1ccc2ncnc(Nc3ccc(Oc4cccc(C(F)(F)F)c4)c(Cl)c3)c21
Method in brief: as §1

[15] = compound: CC(C)C1=C2N=C(C=C(N2N=C1)NCC3=CC=CC=C3)NCCCCCCN
Method in brief: as §1

[16] = compound: CC1=C(C(CC(=O)N1)C2=CC=C(C=C2)C(F)(F)F)C(=O)NC3=C(C=C4C(=C3)C=NN4)F
Method in brief: as §1

[17] = compound: CC1=C(C2=C(C=C1)C(=O)C3=CC=CC=C3N2CCCN)C
Method in brief: as §1

[18] = compound: CC1=C(C=C(C=C1)NC(=O)C2=CC(=CC=C2)C(C)(C)C#N)NC3=CC4=C(C=C3)N=CN(C4=O)C
Method in brief: as §1

[19] = compound: CC1=C(C=C(C=C1)NC(=O)C2=CC(=CC=C2)N(C)C)NC(=O)C3=CC=C(C=C3)O
Method in brief: as §1

[20] = compound: CC1=CC=C(C=C1)SC2=C3C=C(SC3=CN=C2)C(=O)N
Method in brief: as §1

Measured: log2 fold change

EXOSC5 (UniProt Q9NQT4)
inactive: [1] 0.034 | [2] -0.096 | [3] -0.001 | [4] -0.021 | [5] 0.022 | [6] -0.009 | [7] -0.018 | [8] 0.021 | [9] 0.007 | [10] -0.005 | [11] 0.036 | [12] -0.015 | [13] -0.059 | [14] 0.062 | [15] -0.021 | [16] 0.033 | [17] -0.034 | [18] -0.038 | [19] -0.019 | [20] 0.016

EVL isoform 2 (UniProt Q9UI08)
inactive: [1] -0.024 | [2] 0.068 | [3] 0.096 | [4] -0.148 | [5] 0 | [6] -0.016 | [7] 0.032 | [8] -0.025 | [9] 0 | [10] -0.118 | [11] 0.114 | [12] -0.011 | [13] -0.018 | [14] -0.069 | [15] -0.068 | [16] 0.144 | [17] 0.154 | [18] -0.047 | [19] 0.192 | [20] -0.009

ESYT1 isoform 2 (UniProt Q9BSJ8)
inactive: [1] -0.007 | [2] 0.033 | [3] 0.022 | [4] 0.008 | [5] -0.029 | [6] -0.017 | [7] 0.007 | [8] 0.002 | [9] -0.009 | [10] -0.014 | [11] -0.019 | [12] 0.003 | [13] 0.006 | [14] -0.008 | [15] 0.011 | [16] -0.023 | [17] 0.001 | [18] -0.057 | [19] 0.016 | [20] 0.005

FAH (UniProt P16930)
inactive: [1] 0.002 | [2] -0.062 | [3] 0.06 | [4] -0.002 | [5] -0.003 | [6] 0.037 | [7] 0 | [8] -0.043 | [9] -0.013 | [10] -0.068 | [11] 0.035 | [12] 0.021 | [13] 0.054 | [14] -0.033 | [15] -0.021 | [16] -0.027 | [17] -0.038 | [18] -0.02 | [19] 0.012 | [20] -0.033

EXOC4 (UniProt Q96A65)
inactive: [1] 0.031 | [2] 0.034 | [3] -0.065 | [4] 0.031 | [5] 0.012 | [6] -0.015 | [7] -0.026 | [8] -0.011 | [9] 0.011 | [10] -0.009 | [11] -0.004 | [12] -0.011 | [13] 0.014 | [14] -0.031 | [15] -0.003 | [16] -0.013 | [17] 0.022 | [18] -0.031 | [19] 0.02 | [20] 0.002

2 successive records from above, for reference:
EXOSC5 (UniProt Q9NQT4)
inactive: [1] 0.034 | [2] -0.096 | [3] -0.001 | [4] -0.021 | [5] 0.022 | [6] -0.009 | [7] -0.018 | [8] 0.021 | [9] 0.007 | [10] -0.005 | [11] 0.036 | [12] -0.015 | [13] -0.059 | [14] 0.062 | [15] -0.021 | [16] 0.033 | [17] -0.034 | [18] -0.038 | [19] -0.019 | [20] 0.016

EVL isoform 2 (UniProt Q9UI08)
inactive: [1] -0.024 | [2] 0.068 | [3] 0.096 | [4] -0.148 | [5] 0 | [6] -0.016 | [7] 0.032 | [8] -0.025 | [9] 0 | [10] -0.118 | [11] 0.114 | [12] -0.011 | [13] -0.018 | [14] -0.069 | [15] -0.068 | [16] 0.144 | [17] 0.154 | [18] -0.047 | [19] 0.192 | [20] -0.009

Later entries:

FAM210B (UniProt Q96KR6)
inactive: [1] -0.034 | [2] -0.14 | [3] 0.05 | [4] -0.048 | [5] 0.049 | [6] -0.049 | [7] 0.102 | [8] -0.01 | [9] 0.082 | [10] 0.06 | [11] -0.049 | [12] -0.017 | [13] 0.064 | [14] -0.08 | [15] -0.008 | [16] -0.011 | [17] -0.006 | [18] 0.024 | [19] 0.036 | [20] 0.013

ERO1A (UniProt Q96HE7)
inactive: [1] -0.016 | [2] -0.043 | [3] 0.032 | [4] -0.017 | [5] -0.007 | [6] 0.008 | [7] -0.017 | [8] 0 | [9] -0.032 | [10] -0.015 | [11] 0.002 | [12] 0.003 | [13] 0.015 | [14] 0.007 | [15] -0.011 | [16] -0.008 | [17] 0 | [18] 0.01 | [19] 0.002 | [20] 0.001

FAHD2A (UniProt Q96GK7)
inactive: [1] 0.002 | [2] -0.007 | [3] 0.017 | [4] -0.037 | [5] 0.009 | [6] -0.003 | [7] -0.003 | [8] -0.001 | [9] 0.009 | [10] 0.029 | [11] 0 | [12] -0.004 | [13] 0.001 | [14] -0.026 | [15] -0.007 | [16] 0.012 | [17] 0.003 | [18] 0.031 | [19] -0.06 | [20] -0.015

EXOSC2 (UniProt Q13868)
inactive: [1] 0.011 | [2] 0.008 | [3] 0.016 | [4] -0.006 | [5] -0.011 | [6] -0.006 | [7] -0.003 | [8] 0.008 | [9] 0.041 | [10] 0.018 | [11] 0.015 | [12] -0.008 | [13] 0.004 | [14] 0.003 | [15] -0.019 | [16] 0.007 | [17] -0.004 | [18] 0.008 | [19] 0.001 | [20] -0.004

FADS1, A0A0A0MR51
inactive: [1] -0.006 | [2] -0.033 | [3] -0.008 | [4] 0.085 | [5] -0.026 | [6] -0.012 | [7] 0.05 | [8] -0.002 | [9] -0.064 | [10] -0.026 | [11] 0.011 | [12] 0.178 | [13] 0.094 | [14] 0.094 | [15] -0.003 | [16] -0.032 | [17] 0.002 | [18] 0.113 | [19] -0.08 | [20] -0.115

EXOSC9 (UniProt Q06265)
inactive: [1] -0.001 | [2] -0.019 | [3] 0.002 | [4] 0.006 | [5] 0.012 | [6] 0.017 | [7] -0.003 | [8] 0.009 | [9] 0 | [10] 0.006 | [11] 0.006 | [12] -0.011 | [13] -0.016 | [14] 0.001 | [15] -0.023 | [16] -0.031 | [17] -0.007 | [18] 0.063 | [19] -0.01 | [20] -0.001

FAAP100 (UniProt Q0VG06)
inactive: [1] -0.026 | [2] 0.234 | [3] 0.01 | [4] 0.048 | [5] 0.001 | [6] -0.006 | [7] -0.069 | [8] 0.08 | [9] 0.066 | [10] 0.07 | [11] 0.055 | [12] 0.005 | [13] 0 | [14] 0.077 | [15] -0.071 | [16] -0.043 | [17] -0.022 | [18] -0.028 | [19] 0.002 | [20] 0.008

FAM49B (UniProt Q9NUQ9)
inactive: [1] -0.002 | [2] 0.028 | [3] -0.005 | [4] -0.003 | [5] -0.005 | [6] -0.007 | [7] 0.015 | [8] -0.009 | [9] 0.002 | [10] -0.004 | [11] 0.017 | [12] 0 | [13] -0.005 | [14] -0.01 | [15] -0.03 | [16] -0.002 | [17] -0.019 | [18] 0.04 | [19] -0.017 | [20] 0.028

FAM114A2 (UniProt Q9NRY5)
inactive: [1] -0.039 | [2] -0.068 | [3] 0.141 | [4] -0.028 | [5] -0.1 | [6] -0.052 | [7] 0.02 | [8] -0.045 | [9] -0.104 | [10] -0.002 | [11] -0.016 | [12] -0.061 | [13] -0.036 | [14] -0.11 | [15] 0.057 | [16] 0.171 | [17] 0.06 | [18] -0.069 | [19] 0.005 | [20] 0.012

FAM126B (UniProt Q8IXS8)
inactive: [1] 0.084 | [2] -0.045 | [3] 0.187 | [4] 0.075 | [5] 0.042 | [6] -0.054 | [7] -0.017 | [8] -0.028 | [9] 0.113 | [10] 0.033 | [11] -0.067 | [12] 0.043 | [13] 0.11 | [14] -0.034 | [15] 0.126 | [17] -0.074 | [19] -0.089 | [20] -0.076

FAM172A (UniProt Q8WUF8)
inactive: [1] -0.084 | [2] 0.034 | [3] 0.224 | [4] -0.035 | [5] -0.319 | [6] 0.099 | [7] 0.008 | [8] 0.188 | [9] 0.112 | [10] 0.006 | [11] 0.025 | [12] 0.017 | [13] -0.039 | [14] -0.094 | [15] 0.156 | [16] -0.125 | [17] -0.059 | [19] 0.054 | [20] 0.031
